These are yes or no findings as the source states them, for the method shown. In cells and extracts the contact can be indirect. These calls come from enrichment with a bait or labelling near it, and not all partners need be listed.
Experiments:
Kek6-Flag (Drosophila) [1] = assay: affinity purification with mass spectrometry; Kek6-3xFlag from transfected S2 cells held on anti-Flag magnetic beads, re-incubated with adult fly (OregonR) head lysate in NP-40 buffer overnight at 4°C; SDS-PAGE, in-gel trypsin, LC-MS/MS; mock control
Kek6-Flag (Drosophila) [2] = assay: affinity purification with mass spectrometry; lysate of S2 cells transfected with pAct5C-Kek6-3xFlag on anti-Flag magnetic beads overnight at 4°C; eluted proteins on SDS-PAGE, in-gel trypsin, LC-MS/MS; mock-transfected cells as control

binding (Kek6-Flag (Drosophila) [1]): binds | binding (Kek6-Flag (Drosophila) [2]): binds
B1: VAP33A (endogenous, S2 cells and adult fly heads) (protein, UniProt Q9W4N8 1-269)
chain: MSKSLFDLPLTIEPEHELRFVGPFTRPVVTIMTLRNNSALPLVFKIKTTAPKRYCVRPNIGKIIPFRSTQVEICLQPFVYDQQEKNKHKFMVQSVLAPMDADLSDLNKLWKDLEPEQLMDAKLKCVFEMPTAEANAENTSGGGAVGGGTGAAGGGSAGANTSSASAEALESKPKLSSEDKFKPSNLLETSESLDLLSGEIKALRECNIELRRENLHLKDQITRFRSSPAVKQVNEPYAPVLAEKQIPVFYIAVAIAAAIVSLLLGKFFL

— publication PMC5591008
